No constants are given. Whether binding was seen depends on the method and setting. Binding seen in cells or lysates may run through a third protein. Some binding calls cover weakened binding; strength is not graded here.
T1: IFT27 (mouse (endogenous in testis)) (UniProt Q9D0P8)
T1 sequence: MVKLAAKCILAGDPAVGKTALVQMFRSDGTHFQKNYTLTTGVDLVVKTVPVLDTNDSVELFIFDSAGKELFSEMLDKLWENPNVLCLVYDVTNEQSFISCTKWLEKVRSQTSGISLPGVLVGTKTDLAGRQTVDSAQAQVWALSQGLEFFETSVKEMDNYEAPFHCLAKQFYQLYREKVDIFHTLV

Amino acid sequences for entries named in this document (tags omitted).
UniProt Q6VH22: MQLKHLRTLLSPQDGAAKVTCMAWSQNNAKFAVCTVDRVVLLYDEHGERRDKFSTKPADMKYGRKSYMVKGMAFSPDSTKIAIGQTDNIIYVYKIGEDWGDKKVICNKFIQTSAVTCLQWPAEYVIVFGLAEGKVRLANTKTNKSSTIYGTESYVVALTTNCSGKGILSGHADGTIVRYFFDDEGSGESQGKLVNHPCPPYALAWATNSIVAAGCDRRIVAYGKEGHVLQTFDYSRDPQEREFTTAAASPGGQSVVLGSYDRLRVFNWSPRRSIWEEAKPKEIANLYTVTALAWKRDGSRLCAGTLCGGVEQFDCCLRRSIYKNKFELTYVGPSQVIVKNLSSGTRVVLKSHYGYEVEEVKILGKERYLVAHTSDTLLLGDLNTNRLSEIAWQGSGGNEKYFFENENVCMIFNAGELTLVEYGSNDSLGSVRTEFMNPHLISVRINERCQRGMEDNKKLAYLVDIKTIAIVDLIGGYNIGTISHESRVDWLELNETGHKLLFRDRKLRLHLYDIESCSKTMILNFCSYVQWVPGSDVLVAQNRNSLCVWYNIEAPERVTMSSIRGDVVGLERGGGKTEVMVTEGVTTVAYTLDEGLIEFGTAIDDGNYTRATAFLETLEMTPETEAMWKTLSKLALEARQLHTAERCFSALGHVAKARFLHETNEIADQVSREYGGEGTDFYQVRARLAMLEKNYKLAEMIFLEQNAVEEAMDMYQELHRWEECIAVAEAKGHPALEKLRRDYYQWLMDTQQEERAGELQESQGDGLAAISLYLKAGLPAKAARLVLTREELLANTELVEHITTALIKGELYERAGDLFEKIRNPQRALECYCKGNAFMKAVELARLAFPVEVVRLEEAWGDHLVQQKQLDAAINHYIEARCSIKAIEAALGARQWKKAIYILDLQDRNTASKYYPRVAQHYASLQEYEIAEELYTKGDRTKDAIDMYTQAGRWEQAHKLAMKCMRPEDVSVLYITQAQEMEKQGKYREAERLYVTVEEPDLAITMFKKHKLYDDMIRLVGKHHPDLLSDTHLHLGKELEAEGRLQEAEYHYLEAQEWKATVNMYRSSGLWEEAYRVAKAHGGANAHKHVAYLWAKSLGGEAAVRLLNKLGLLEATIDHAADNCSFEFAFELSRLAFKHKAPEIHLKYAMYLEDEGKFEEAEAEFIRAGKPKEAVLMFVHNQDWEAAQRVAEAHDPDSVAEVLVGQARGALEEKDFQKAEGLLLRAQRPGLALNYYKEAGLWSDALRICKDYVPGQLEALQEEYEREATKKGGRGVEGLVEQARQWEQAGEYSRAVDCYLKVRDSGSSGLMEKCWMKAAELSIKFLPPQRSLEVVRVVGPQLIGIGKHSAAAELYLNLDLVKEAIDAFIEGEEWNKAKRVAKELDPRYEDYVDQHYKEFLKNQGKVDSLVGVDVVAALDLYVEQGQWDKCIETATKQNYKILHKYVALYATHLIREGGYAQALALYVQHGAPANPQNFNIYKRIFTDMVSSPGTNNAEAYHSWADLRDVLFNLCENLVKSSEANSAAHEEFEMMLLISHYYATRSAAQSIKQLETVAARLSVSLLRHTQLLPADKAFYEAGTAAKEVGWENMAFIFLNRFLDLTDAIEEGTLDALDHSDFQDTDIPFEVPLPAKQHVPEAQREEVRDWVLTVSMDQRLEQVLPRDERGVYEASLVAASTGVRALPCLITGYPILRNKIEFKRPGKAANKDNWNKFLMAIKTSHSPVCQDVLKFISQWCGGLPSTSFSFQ
UniProt P50518: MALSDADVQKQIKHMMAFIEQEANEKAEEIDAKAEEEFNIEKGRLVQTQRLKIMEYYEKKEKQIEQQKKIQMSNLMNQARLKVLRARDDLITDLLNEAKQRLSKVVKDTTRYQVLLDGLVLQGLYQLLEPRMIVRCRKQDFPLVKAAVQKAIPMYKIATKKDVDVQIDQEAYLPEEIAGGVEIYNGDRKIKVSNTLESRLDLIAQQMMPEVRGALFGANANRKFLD
UniProt P00342: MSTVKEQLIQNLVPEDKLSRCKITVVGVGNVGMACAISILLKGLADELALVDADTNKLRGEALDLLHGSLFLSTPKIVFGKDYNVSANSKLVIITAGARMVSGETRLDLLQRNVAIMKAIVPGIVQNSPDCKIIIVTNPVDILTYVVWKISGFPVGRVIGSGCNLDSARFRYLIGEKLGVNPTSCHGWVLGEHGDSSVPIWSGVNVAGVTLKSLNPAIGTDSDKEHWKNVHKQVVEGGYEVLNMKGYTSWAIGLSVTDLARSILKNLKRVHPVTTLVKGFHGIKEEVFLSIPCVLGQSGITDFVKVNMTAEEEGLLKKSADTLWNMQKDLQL
UniProt P48722: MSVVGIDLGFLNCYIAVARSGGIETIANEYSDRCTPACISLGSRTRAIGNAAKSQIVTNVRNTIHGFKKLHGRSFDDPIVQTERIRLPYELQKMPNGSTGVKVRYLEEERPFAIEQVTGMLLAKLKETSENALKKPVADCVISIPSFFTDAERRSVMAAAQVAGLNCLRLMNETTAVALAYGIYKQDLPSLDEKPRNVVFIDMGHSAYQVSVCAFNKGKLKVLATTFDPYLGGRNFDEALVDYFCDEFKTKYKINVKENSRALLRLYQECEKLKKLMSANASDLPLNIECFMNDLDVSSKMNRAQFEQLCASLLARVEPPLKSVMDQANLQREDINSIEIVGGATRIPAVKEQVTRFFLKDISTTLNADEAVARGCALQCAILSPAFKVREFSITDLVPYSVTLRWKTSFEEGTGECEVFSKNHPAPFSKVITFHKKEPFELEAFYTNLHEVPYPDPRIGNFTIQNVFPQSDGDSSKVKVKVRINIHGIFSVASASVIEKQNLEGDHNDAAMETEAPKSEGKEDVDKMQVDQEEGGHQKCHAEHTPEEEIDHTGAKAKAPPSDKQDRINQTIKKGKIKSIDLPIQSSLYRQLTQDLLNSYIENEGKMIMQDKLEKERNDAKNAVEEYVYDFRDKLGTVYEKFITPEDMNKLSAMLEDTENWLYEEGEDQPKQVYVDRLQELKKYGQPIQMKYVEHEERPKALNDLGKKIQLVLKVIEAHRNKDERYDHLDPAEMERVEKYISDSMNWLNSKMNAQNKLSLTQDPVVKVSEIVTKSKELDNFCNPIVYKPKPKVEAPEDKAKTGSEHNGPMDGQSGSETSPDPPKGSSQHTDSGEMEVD

T2: IFT81 (mouse (endogenous in testis)) (UniProt O35594)
T2 sequence: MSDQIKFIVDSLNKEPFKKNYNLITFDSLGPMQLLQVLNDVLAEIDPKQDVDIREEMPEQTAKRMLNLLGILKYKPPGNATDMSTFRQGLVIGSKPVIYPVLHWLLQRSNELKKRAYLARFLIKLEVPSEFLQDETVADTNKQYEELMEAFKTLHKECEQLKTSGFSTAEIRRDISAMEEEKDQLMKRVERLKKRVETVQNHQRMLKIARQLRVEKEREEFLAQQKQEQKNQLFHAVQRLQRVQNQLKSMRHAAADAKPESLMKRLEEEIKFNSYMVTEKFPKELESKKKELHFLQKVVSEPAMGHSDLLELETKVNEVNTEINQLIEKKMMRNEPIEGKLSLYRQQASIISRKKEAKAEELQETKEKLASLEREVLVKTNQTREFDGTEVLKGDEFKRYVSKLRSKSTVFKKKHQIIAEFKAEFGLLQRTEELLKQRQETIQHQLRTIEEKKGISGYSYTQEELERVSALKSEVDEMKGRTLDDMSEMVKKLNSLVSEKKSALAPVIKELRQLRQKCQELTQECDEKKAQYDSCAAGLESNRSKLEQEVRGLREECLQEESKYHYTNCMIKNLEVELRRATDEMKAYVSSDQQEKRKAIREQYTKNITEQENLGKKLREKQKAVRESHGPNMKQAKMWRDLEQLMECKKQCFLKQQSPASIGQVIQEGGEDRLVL

T3: microtubule plus end trafficking protein EB1 (mouse (endogenous in testis)) (UniProt Q61166)
T3 sequence: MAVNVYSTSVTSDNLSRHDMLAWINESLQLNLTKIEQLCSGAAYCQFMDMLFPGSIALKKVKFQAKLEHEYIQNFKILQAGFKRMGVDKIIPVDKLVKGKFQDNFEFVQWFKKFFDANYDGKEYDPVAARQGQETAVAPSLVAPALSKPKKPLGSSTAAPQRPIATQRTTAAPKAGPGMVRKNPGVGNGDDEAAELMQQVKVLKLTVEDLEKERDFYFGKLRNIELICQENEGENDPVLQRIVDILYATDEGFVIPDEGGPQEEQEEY

T4: HK1 (mouse (endogenous in testis)) (UniProt P17710)
T4 sequence: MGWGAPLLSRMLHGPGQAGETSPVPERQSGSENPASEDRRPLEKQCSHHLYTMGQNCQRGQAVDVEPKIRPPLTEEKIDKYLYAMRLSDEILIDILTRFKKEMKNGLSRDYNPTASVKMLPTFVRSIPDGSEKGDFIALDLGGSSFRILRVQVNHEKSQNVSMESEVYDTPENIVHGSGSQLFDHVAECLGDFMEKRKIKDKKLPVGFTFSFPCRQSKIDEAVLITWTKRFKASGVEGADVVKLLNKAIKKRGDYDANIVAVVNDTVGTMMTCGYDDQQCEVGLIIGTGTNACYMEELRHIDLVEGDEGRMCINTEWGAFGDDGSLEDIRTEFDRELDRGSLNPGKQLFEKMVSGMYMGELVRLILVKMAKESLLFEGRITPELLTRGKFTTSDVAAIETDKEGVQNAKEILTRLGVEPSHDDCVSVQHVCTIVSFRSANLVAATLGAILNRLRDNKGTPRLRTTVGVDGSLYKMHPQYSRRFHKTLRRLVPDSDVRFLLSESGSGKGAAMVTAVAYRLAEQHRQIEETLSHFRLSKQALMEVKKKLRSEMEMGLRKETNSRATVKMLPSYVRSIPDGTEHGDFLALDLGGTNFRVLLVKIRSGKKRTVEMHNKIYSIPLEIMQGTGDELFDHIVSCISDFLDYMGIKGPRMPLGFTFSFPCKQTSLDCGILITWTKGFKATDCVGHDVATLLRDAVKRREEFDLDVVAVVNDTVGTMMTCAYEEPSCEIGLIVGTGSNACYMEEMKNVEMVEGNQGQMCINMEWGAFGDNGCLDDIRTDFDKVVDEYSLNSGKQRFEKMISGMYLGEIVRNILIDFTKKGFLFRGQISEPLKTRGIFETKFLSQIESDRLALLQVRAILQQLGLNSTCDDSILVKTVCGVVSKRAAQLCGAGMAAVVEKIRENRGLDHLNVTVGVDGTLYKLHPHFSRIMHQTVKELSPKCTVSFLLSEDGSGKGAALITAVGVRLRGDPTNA

T5: recombinant RABL2 (isoform 2), conjugated to agarose (mouse) (UniProt E9Q9D5)
T5 sequence: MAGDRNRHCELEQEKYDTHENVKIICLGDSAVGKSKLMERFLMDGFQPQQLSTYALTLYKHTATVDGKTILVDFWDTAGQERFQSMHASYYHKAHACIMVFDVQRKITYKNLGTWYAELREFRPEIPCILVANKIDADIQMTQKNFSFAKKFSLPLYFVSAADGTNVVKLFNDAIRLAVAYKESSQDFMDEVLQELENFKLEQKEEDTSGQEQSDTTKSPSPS


What was measured:
[1] = molecular target: T1, IFT27 (mouse (endogenous in testis)); test: co-IP; 1 mg adult mouse testis lysate with 4 ug of IFT172, IFT81 or IFT27 antibody, with or without exogenous GTP; protein G magnetic beads; Western blot for RABL2; isotype-matched immunoglobulin as control
[2] = molecular target: T2, IFT81 (mouse (endogenous in testis)); test: as above
[3] = molecular target: IFT172 (mouse (endogenous in testis)) (UniProt Q6VH22); test: as above
[4] = molecular target: T3, microtubule plus end trafficking protein EB1 (mouse (endogenous in testis)); test: co-IP; 2 mg adult mouse testis lysate with 4 ug antibody against the effector protein, supplemented with 100 uM GTPgammaS; protein G magnetic beads, eluted with 0.1 M glycine pH 2.7; Western blot for RABL2; matched immunoglobulin as control
[5] = molecular target: T4, HK1 (mouse (endogenous in testis)); test: as above
[6] = molecular target: ATP6V1E1 (mouse (endogenous in testis)) (UniProt P50518); test: as above
[7] = molecular target: LDHC (mouse (endogenous in testis)) (UniProt P00342); test: as above
[8] = molecular target: HSPA4L (mouse (endogenous in testis)) (UniProt P48722); test: as above
[9] = molecular target: T5, recombinant RABL2 (isoform 2), conjugated to agarose (mouse); test: pull-down; additional GTP-RABL2 and GDP-RABL2 affinity column eluates from adult mouse testis extracts, Western blotting for candidate effector proteins; only the target purified

| binding [1] | binding [2] | binding [3] | binding [4] | binding [5] | binding [6] | binding [7] | binding [8] | binding [9] | Binder |
| --- | --- | --- | --- | --- | --- | --- | --- | --- | --- |
| binds | binds | binds | binds | binds | binds | binds | binds | – | RAB-like 2 (RABL2), endogenous in mouse testis (protein, UniProt E9Q9D5-2 1-223) MAGDRNRHCELEQEKYDTHENVKIICLGDSAVGKSKLMERFLMDGFQPQQLSTYALTLYKHTATVDGKTILVDFWDTAGQERFQSMHASYYHKAHACIMVFDVQRKITYKNLGTWYAELREFRPEIPCILVANKIDADIQMTQKNFSFAKKFSLPLYFVSAADGTNVVKLFNDAIRLAVAYKESSQDFMDEVLQELENFKLEQKEEDTSGQEQSDTTKSPSPS |
| – | – | – | – | – | – | – | – | binds | microtubule plus end trafficking protein EB1 (protein, UniProt Q61166 1-268) MAVNVYSTSVTSDNLSRHDMLAWINESLQLNLTKIEQLCSGAAYCQFMDMLFPGSIALKKVKFQAKLEHEYIQNFKILQAGFKRMGVDKIIPVDKLVKGKFQDNFEFVQWFKKFFDANYDGKEYDPVAARQGQETAVAPSLVAPALSKPKKPLGSSTAAPQRPIATQRTTAAPKAGPGMVRKNPGVGNGDDEAAELMQQVKVLKLTVEDLEKERDFYFGKLRNIELICQENEGENDPVLQRIVDILYATDEGFVIPDEGGPQEEQEEY |

— paper PMC3464206
